# From article PMC6321145 (Molecules, 2018)
# System: mice
# Assay: Step-down passive avoidance test, scopolamine-induced memory impairment
# Assay type: in vivo
# Conditions: 5 mg/kg
# Procedure: A step-down passive avoidance test was used to assess learning and memory in mice. The apparatus (Shanghai XinRuan, Shanghai, China) consisted of two identically sized compartments, with a guillotine door to separate light and dark. Illumination was available in the light box through LED lights at 250 lux. The mice underwent two separate trials: a training trial and a test trial 24 h later. For training trial, mice were initially placed in the light compartment and were allowed to explore the environment freely for 5 min so that they can be familiar with the environment. Then the door was opened, the mice tried to enter the dark compartment since they preferred to stay in dark place. As soon as the mice came into the dark compartment, an electrical shock was delivered through the steel rods. The training lasted for 5 min. […] The test trial was preformed after 24 h. The mice were placed into the light compartment and the door was opened. The time that the mouse spent to enter the dark compartment was recorded as the latency. The numbers that the mouse entered the dark compartment during 5 min were measured as error numbers.
smiles,measurement,value
"COc1cc2c(cc1OC)C(=O)C(CC1CCN(Cc3ccccc3)CC1)C2 (centres unmarked) [donepezil, reference compound]",Latency time,176 s
same,Number of errors,2.87
